According to the supplement of paper PMC3414501:
The entries are a selection whose mix differs from that of the whole data set.

System: S. cerevisiae AD1-9 (efflux-pump deficient), vegetative growth in YPD
Assay: growth sensitivity score (doubling time z-score vs DMSO controls); higher = slower growth, strongly negative scores also mark growth inhibition (complete suppression), active = hit call of the paper; in the data active = 2 or more and inactive = the rest
Procedure, shortened: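 Yeast (Saccharomyces cerevisiae BY4741 and AD1-9) was grown in rich medium in microtiter plates from a starting OD600 of 0.065, with optical density read every 15 min over 24 hours. The growth sensitivity score was the difference between compound and solvent-only means, divided by the solvent-only standard deviation. Every experiment had eight solvent-only wells.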

Row | SMILES | growth sensitivity score (stock concentration (mM, diluted 1:100): 9.9) | growth sensitivity score (stock concentration (mM, diluted 1:100): 10)
1 | Cc1cccc(CCN2CCC(C(=O)c3ccc(NS(C)(=O)=O)cc3)CC2)n1 | inactive: -1.81 | –
2 | Cc1c(C(=O)NN2CCCCC2)nn(-c2ccc(Cl)cc2Cl)c1-c1ccc(I)cc1 | – | active: 40.2
